The record followed here is article PMC5068889.

By UniProt entry, the sequences of proteins in these tests, tags left out.
UniProt Q4QQW4: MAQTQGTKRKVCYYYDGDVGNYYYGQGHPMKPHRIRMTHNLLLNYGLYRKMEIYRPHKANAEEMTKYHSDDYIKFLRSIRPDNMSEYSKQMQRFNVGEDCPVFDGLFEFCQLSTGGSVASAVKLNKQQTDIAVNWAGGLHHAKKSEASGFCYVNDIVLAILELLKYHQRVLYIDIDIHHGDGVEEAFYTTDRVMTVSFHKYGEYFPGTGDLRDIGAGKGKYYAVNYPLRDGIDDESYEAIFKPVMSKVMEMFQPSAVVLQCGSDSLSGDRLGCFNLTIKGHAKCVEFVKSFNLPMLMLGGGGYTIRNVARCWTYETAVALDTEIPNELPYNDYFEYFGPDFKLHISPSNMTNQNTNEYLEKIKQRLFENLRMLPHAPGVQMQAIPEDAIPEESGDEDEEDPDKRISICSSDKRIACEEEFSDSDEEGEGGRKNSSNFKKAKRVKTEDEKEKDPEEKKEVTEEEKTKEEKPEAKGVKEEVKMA
UniProt Q8VIB2: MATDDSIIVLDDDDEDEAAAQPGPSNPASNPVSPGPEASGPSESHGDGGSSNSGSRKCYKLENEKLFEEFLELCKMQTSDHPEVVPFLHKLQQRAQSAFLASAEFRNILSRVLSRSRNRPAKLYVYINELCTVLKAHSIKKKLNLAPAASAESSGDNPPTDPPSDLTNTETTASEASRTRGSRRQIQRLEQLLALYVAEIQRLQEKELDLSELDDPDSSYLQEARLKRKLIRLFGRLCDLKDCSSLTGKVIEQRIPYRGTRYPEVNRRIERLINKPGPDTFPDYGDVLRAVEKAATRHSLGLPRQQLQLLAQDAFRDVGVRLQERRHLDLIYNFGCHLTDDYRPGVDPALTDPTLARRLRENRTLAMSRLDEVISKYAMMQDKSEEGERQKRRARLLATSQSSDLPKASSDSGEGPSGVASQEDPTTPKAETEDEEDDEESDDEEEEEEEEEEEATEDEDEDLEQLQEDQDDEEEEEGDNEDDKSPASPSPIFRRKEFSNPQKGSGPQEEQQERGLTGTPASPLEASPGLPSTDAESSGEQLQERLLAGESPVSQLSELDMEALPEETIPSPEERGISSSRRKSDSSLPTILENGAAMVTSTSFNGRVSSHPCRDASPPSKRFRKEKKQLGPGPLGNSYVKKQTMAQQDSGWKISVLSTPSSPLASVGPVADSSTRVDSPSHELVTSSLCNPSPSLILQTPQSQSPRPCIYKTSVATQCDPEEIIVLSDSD

The experiment has as its target HDAC1 (rat (endogenous in HiB5)) (UniProt Q4QQW4). Kind of experiment: co-IP; nuclear protein extract (200 ug) of differentiated HiB5 cells (untreated, or transduced with LVV carrying non-target RNA or HDAC1 shRNAi); precipitated overnight at 4 °C with rabbit anti-HDAC1 antibody, protein G magnetic beads; rabbit IgG as negative control; DAXX detected by western blot.

No constants are given. Whether binding was seen depends on the method and setting. In cells and extracts the contact can be indirect. Some binding calls cover weakened binding; strength is not graded here.

Turning to DAXX (from UniProt Q8VIB2 1-731), the binding entry is listed as “binds”.
